The list shows a part of the results. These are further read-outs of the screen, such as a control signal, another cell line or another target. No call is given for them. Most of these compounds were active or inconclusive in the main read-out, so they are no random draw. Words in brackets tell the shape of the fitted curve; partial curves, single points and poor fits give uncertain potencies.
Assay: qHTS Assay for Lipid Storage Modulators in Drosophila S3 Cells;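 as to cell number change: cells counted by Cell Tracker Red CMTPX staining in the red channel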
Conditions: BODIPY lipid droplet fluorescence, 18-24 h; for cell number change: measured here: cell count max response, cells fed with added oleic acid
Procedure, shortened: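 Laser-scanning cytometry quantifies lipid droplet accumulation (500–530 nm total intensity; droplet/cell object ratio) in oleic acid-fed (400 uM added) Drosophila S3 cells treated with a concentration series. 20 uM Triacsin C defined 100% inhibition.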

[1] = measured here: lipid fluorescence (Fed channel) AC50, cells fed with added oleic acid
[2] = measured here: cell number channel AC50, cells fed with added oleic acid

Row | SMILES | cell number change [%] | AC50 [1] | AC50 [2]
1 | COc1ccc(CNS(=O)(=O)c2cc(-c3cc(C)no3)ccc2C)cc1OC | -21.3 | 29.1 µM [falling, single point] | –
2 | Cc1cccc(NC(=O)COC(=O)c2n[nH]c3ccccc23)c1C | -16.1 | – | 1.84 µM [rising, partial curve]
3 | COc1ccccc1CCNC(=O)c1ccc(NC(=O)CC2SC(N3CCCCC3)=NC2=O)cc1 (centres undefined) | -1.97 | 6.51 µM [rising, single point] | –
4 | Cc1ccc(N2C(=O)CCSC23C(=O)Nc2ccccc23)cc1 (centres undefined) | 42.4 | – | 32.6 µM [rising, single point]
5 | CC(C)c1ccc(NC(=O)N2CCc3ccccc3C2)cc1 | 22.7 | – | 0.103 µM [rising, full curve, poor fit]
6 | O=C(NC(Cc1ccccc1)C(=O)OCC(=O)N1CCc2ccccc21)c1ccco1 (centres undefined) | 209 | – | –
7 | COc1ccc(C2C(C#N)=C(N)Oc3cc(C)n(Cc4ccco4)c(=O)c32)cc1 (centres undefined) | 4.07 | 1.64 µM [rising, partial curve] | –
8 | CSc1ccccc1C(=O)NCc1ccc(C)cc1 | – | 2.91 µM [falling, single point] | 6.51 µM [falling, single point]
9 | CN(C)S(=O)(=O)c1ccc(Oc2ccc(S(=O)(=O)N(C)C)cc2)cc1 | 8.3 | 29.1 µM [falling, single point] | 6.51 µM [rising, single point]
10 | Cc1cc(C(=O)OCC(=O)Nc2ccc(F)cc2[N+](=O)[O-])c2ccccc2n1 | 13.7 | 1.64 µM [rising, partial curve] | –
11 | Cc1ccccc1NC(=S)Nn1cnnc1 | -3.23 | 2.06 µM [falling, partial curve] | –
12 | CC(O)[C@H]1CC[C@H]2[C@@H]3CC[C@H]4C[C@@H](O)CC[C@]4(C)[C@H]3C(=O)C[C@]12C (some centres undefined) | -35.8 | 0.146 µM [falling, full curve, poor fit] | 0.206 µM [falling, full curve, poor fit]
13 | CNC(=O)Nc1ccc(Cn2cc(C(F)(F)F)ccc2=O)cc1 | 19.1 | – | –
14 | Cc1cc(C)nc(Nc2n[nH]c(-c3ccccc3Br)n2)n1 | -8.92 | 0.731 µM [rising, full curve] | –
15 | Cc1ccccc1CNC(=O)Cn1ccc2cc(S(=O)(=O)N3CCCCCC3)ccc21 | -12.6 | 6.51 µM [rising, single point] | –
16 | O=C(NCc1ccccc1Cl)C1CCN(S(=O)(=O)c2ccc(F)cc2)CC1 | -3.22 | – | 0.82 µM [falling, full curve, poor fit]
17 | O=C(Cn1cnc2ccccc2c1=O)NC1CCCc2ccccc21 (centres undefined) | 22.2 | 18.4 µM [rising, single point] | –
18 | CN(Cc1ccccc1)C(=O)C1CCN(S(=O)(=O)c2cccc3nsnc23)CC1 | -22.2 | 6.51 µM [falling, single point] | –

Row | SMILES | cell number change [%] | AC50 [1] | AC50 [2]
19 | Cc1ccc(S(=O)(=O)N2CCC(=O)N(C(COCc3cccc(Cl)c3)Cc3ccccc3)CC2)cc1 (centres undefined) | -13 | 2.91 µM [rising, single point] | –
20 | CC(C)CN(C(=O)COC(=O)c1ccccc1NCc1ccco1)c1c(N)n(Cc2ccccc2)c(=O)[nH]c1=O | – | – | 3.66 µM [rising, single point]
21 | CCOc1ccc(N(CC(=O)NC2CCCC2)S(=O)(=O)c2ccccc2)cc1 | – | 6.51 µM [falling, single point] | –
22 | O=C(CN(C(=O)CNS(=O)(=O)c1ccccc1)c1ccc(F)cc1)NCc1ccco1 | -17.1 | – | –
23 | CC1CC(C)CN(C(=O)c2cccc(S(=O)(=O)N(C)c3ccccc3)c2)C1 (centres undefined) | 35 | – | 4.11 µM [rising, full curve]
24 | COc1ccc(CCNC(=O)c2cccc(NC(=O)CC3SC(N4CCCCC4)=NC3=O)c2)cc1OC (centres undefined) | – | 1.58 µM [rising, partial curve] | –
25 | O=C(NC1CCS(=O)(=O)C1)C1CCCCN1S(=O)(=O)c1ccc(Cl)cc1 (centres undefined) | 2.99 | 29.1 µM [rising, single point] | 0.291 µM [rising, full curve]
26 | C/C(CCC(=O)OC[C@H]1O[C@H](C#Cc2ccccc2)C=C[C@@H]1Oc1ccc(C)cc1)=N\O[C@@H](C)CN1CCCCc2nc(C)c(C)cc21 | 14.1 | 6.51 µM [rising, partial curve, poor fit] | –
27 | CS(=O)(=O)N(CC(=O)NCc1ccc2c(c1)OCO2)c1cccc(Cl)c1 | 19.6 | 20.6 µM [rising, partial curve, poor fit] | –
28 | COc1cccc(CC(=O)OCC(=O)NC(C)c2ccc(F)cc2)c1 (centres undefined) | -0.777 | 20.6 µM [falling, single point] | –
29 | COc1ccc(C(=O)NCCS(=O)(=O)N2CCc3ccccc3C2)c(OC)c1 | -14.8 | – | –
30 | Cc1c(Nc2scc(-c3ccccc3)[n+]2-c2ccccc2)c(=O)n(-c2ccccc2)n1C | – | 0.00461 µM [falling, full curve, poor fit] | –
31 | CCc1cccc(CC)c1NC(=O)COC(=O)C1(C)CC1(Cl)Cl (centres undefined) | – | 2.59 µM [falling, partial curve, poor fit] | 6.51 µM [falling, single point]
32 | COc1cc(Br)cc(Br)c1OCC(=O)N/N=C/c1c(C)n(C)n(-c2ccccc2)c1=O | -41.4 | – | 1.03 µM [falling, full curve, poor fit]
33 | Cc1cc(C)cc(NC(=O)c2ccc(Cn3nc(C)c(Cl)c3C)o2)c1 | -34.5 | 29.1 µM [falling, single point] | 29.1 µM [falling, single point]
34 | COc1ccccc1OCCNC(=O)c1cccc(S(=O)(=O)N2CCN(Cc3ccccc3)CC2)c1 | -3.5 | 29.1 µM [falling, single point] | –
35 | O=C(Cc1c(Cl)cccc1Cl)NCCc1ccc(Cl)cc1 | -3.71 | 3.66 µM [rising, single point] | 6.51 µM [falling, single point]
36 | CCOC(=O)C1C(=O)CC(C)(O)C(C(=O)OCC)C1c1ccc(C)s1 (centres undefined) | 2.18 | 23.1 µM [rising, single point] | –

Ten of the compounds above, with tabs:
Row	SMILES	cell number change [%]	AC50 [1]	AC50 [2]
24	COc1ccc(CCNC(=O)c2cccc(NC(=O)CC3SC(N4CCCCC4)=NC3=O)c2)cc1OC (centres undefined)	–	1.58 µM [rising, partial curve]	–
25	O=C(NC1CCS(=O)(=O)C1)C1CCCCN1S(=O)(=O)c1ccc(Cl)cc1 (centres undefined)	2.99	29.1 µM [rising, single point]	0.291 µM [rising, full curve]
26	C/C(CCC(=O)OC[C@H]1O[C@H](C#Cc2ccccc2)C=C[C@@H]1Oc1ccc(C)cc1)=N\O[C@@H](C)CN1CCCCc2nc(C)c(C)cc21	14.1	6.51 µM [rising, partial curve, poor fit]	–
27	CS(=O)(=O)N(CC(=O)NCc1ccc2c(c1)OCO2)c1cccc(Cl)c1	19.6	20.6 µM [rising, partial curve, poor fit]	–
28	COc1cccc(CC(=O)OCC(=O)NC(C)c2ccc(F)cc2)c1 (centres undefined)	-0.777	20.6 µM [falling, single point]	–
29	COc1ccc(C(=O)NCCS(=O)(=O)N2CCc3ccccc3C2)c(OC)c1	-14.8	–	–
30	Cc1c(Nc2scc(-c3ccccc3)[n+]2-c2ccccc2)c(=O)n(-c2ccccc2)n1C	–	0.00461 µM [falling, full curve, poor fit]	–
31	CCc1cccc(CC)c1NC(=O)COC(=O)C1(C)CC1(Cl)Cl (centres undefined)	–	2.59 µM [falling, partial curve, poor fit]	6.51 µM [falling, single point]
32	COc1cc(Br)cc(Br)c1OCC(=O)N/N=C/c1c(C)n(C)n(-c2ccccc2)c1=O	-41.4	–	1.03 µM [falling, full curve, poor fit]
33	Cc1cc(C)cc(NC(=O)c2ccc(Cn3nc(C)c(Cl)c3C)o2)c1	-34.5	29.1 µM [falling, single point]	29.1 µM [falling, single point]
